Experimental data reported in article PMC4732300.
Results are given in words; binding and its absence hold for the method and conditions named. Binding seen in cells or lysates may run through a third protein. Here binding means that the protein was enriched with, or labelled near, the bait; the list need not be complete.

Protein sequences, listed by entry. Tags and fused reporters are not part of them.
UniProt Q6PFY1: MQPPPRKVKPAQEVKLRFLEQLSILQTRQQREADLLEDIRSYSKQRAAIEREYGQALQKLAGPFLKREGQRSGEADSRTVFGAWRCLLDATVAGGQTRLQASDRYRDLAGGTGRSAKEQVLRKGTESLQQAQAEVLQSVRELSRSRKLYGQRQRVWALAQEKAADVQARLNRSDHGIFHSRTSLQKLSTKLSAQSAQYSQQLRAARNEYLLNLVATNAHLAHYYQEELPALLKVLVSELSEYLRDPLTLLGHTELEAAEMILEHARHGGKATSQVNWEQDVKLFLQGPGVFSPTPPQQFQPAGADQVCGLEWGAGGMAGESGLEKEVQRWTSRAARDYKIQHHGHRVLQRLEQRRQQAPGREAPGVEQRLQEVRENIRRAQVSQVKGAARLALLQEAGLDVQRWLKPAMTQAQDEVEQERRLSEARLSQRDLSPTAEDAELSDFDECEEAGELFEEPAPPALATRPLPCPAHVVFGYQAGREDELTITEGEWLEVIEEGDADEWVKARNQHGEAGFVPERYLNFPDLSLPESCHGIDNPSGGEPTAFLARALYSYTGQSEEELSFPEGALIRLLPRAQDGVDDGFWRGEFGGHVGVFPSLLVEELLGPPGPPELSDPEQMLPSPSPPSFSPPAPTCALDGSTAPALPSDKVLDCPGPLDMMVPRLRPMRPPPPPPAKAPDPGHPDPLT
UniProt Q6R891: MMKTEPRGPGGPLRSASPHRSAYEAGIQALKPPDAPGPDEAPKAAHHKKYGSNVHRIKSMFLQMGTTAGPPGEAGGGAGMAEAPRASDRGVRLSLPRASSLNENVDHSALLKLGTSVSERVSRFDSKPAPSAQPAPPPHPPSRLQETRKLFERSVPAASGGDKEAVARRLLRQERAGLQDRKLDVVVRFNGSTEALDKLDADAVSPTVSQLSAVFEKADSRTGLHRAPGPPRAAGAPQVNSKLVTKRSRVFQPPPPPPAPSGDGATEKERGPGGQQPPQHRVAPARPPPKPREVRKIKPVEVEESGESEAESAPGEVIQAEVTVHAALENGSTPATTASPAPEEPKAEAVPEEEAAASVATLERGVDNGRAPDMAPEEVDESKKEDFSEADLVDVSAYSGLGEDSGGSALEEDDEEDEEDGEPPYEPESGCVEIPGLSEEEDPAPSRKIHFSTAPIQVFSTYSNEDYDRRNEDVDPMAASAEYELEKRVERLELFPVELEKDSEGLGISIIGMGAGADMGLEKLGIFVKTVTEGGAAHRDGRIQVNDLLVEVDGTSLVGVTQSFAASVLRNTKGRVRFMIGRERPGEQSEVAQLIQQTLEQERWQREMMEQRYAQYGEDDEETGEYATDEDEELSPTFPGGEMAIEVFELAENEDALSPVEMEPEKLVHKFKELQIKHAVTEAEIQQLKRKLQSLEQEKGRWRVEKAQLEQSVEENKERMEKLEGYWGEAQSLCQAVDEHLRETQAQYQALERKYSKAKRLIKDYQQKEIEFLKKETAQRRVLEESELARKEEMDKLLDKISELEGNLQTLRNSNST
UniProt Q91VH2: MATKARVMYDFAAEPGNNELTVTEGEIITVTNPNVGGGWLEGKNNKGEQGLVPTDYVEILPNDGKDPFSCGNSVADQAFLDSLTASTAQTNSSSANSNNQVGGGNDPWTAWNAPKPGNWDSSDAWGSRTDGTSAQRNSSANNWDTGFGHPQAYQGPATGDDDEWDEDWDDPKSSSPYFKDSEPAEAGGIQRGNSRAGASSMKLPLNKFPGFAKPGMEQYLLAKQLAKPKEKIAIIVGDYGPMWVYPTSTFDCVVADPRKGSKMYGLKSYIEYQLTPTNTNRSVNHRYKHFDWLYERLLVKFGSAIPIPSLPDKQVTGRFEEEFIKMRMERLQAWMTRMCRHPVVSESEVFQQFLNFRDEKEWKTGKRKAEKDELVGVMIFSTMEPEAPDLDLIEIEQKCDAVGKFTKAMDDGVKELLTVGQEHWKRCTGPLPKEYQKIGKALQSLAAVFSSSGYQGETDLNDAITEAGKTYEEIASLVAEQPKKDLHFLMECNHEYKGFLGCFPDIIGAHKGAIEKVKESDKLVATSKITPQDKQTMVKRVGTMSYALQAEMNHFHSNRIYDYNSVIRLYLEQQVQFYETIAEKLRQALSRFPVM

Biological target: FLAG–NWK2 (expressed in CAD cells) (mouse) (UniProt Q6PFY1)
Experiment: affinity purification with mass spectrometry; FLAG–NWK2 transiently expressed in CAD cells; lysate (50 mM Tris-HCl pH 7.5, 150 mM NaCl, 1 mM EDTA, 1% Triton X-100) on anti-FLAG agarose, washes with 500 mM NaCl, elution with 3×FLAG peptide, trypsin digestion, LC-MS/MS; untransfected cells as control

binding	Molecule
binds	Spinophilin, endogenous in CAD cells (from UniProt Q6R891 1-817)
binds	sorting nexin 9 (SNX9), endogenous in CAD cells (from UniProt Q91VH2 1-595)
binds	sorting nexin 18 (SNX18), endogenous in CAD cells (protein, UniProt Q91ZR2 1-614) MALRARALYDFKSENPGEISLREHEVLSLCSEQDIEGWLEGINSRGDRGLFPASYVQVIRAPEPGPPADGGPGAPARYANVPPGGFEPLPAAPPAAFPPLLQPQASPGSFQPPGAGFPYGGGALQPSPQQLYGGYQASLGSDDDWDDEWDDSSTVADEPGALGSGAYPDLDGSSSAGGGAAGRYRLSTRSDLSLGSRGVSAPPAPSVWSQELGHGEPQPQSLLHLRQVGRGGLRAGRGVRLREGWGQAVRGAGSYGPEWQENPYPFQCTIDDPTKQTKFKGMKSYISYKLVPTHTQVPVHRRYKHFDWLYARLAEKFPVISVPHLPEKQATGRFEEDFISKRRKGLIWWMNHMASHPVLAQCDVFQHFLTCPSSTDEKAWKQGKRKAEKDEMVGANFFLTLSTPPAAALDLQEVESKIDGFKCFTKKMDDSALQLNHTANEFARKQVTGFKKEYQKVGQSFRGLSQAFELDQQAFSVGLNQAIAFTGDAYDAIGELFAEQPRQDLDPVMDLLALYQGHLANFPDIIHVQKGALTKVKESRRHVEEGKMEVQKADGIQDRCNTISFATLAEIHHFHQIRVRDFKSQMQHFLQQQIIFFQKVTQKLEEALHKYDSV
